Substitutions are numbered along the chain they refer to. Results are given in words; binding and its absence hold for the method and conditions named. Binding can be weak; no strength is given.

The chains behind the UniProt entries cited, without tags or fusion partners. Where a name states a change or a piece, a line headed by the entry shows the natural chain unless it says otherwise. Residues count along the entry.
UniProt P14780: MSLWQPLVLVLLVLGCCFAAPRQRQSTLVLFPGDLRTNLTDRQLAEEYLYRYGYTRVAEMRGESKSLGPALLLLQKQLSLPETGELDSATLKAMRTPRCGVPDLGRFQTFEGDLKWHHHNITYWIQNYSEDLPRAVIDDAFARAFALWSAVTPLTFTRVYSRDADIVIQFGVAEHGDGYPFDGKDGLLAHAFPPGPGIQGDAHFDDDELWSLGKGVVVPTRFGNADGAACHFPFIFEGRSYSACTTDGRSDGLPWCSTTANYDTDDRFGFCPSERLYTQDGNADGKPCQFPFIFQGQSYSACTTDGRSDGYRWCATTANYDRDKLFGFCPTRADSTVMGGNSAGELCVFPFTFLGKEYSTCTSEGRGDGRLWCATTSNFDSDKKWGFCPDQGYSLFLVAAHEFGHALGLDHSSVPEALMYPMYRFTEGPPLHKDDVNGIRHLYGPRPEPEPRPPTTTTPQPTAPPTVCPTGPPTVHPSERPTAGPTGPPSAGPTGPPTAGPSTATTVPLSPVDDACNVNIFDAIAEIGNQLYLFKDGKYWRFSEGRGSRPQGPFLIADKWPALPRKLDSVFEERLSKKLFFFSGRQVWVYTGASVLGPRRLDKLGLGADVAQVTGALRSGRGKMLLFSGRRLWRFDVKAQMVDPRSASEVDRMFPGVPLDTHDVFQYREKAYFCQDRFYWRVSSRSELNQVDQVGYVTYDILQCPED
UniProt P16035, residues 27-153: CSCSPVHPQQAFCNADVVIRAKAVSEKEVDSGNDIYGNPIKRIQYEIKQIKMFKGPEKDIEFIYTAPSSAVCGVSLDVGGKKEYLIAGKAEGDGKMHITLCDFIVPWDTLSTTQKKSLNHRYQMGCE

Assay [1] concerns the target catalytic domain of human MMP-9 (cdMMP-9) (human) (UniProt P14780). The experiment in a line: competitive ELISA on immobilized cdMMP-9; nTIMP-2 varied, displaced molecule Fab L13.
Assay [2] has the same target. The experiment in a line: competitive ELISA on immobilized cdMMP-9, nTIMP-2 concentration varied against Fab L13. (In general: In an ELISA, binding on a coated surface is turned into a signal by an enzyme label.)
Assay [3] shares this target. The experiment in a line: biolayer interferometry and ELISA.
Assay [4] has the same target. The experiment in a line: biolayer interferometry and FRET inhibition assay. On the technique in general: BLI is a label-free optical method that tracks binding on a fibre tip over time.

In the case of nTIMP-2 (from UniProt P16035 27-153), the binding result in assay [1] and in assay [2] was “binds” each time.

B1: anti-MMP9 Fab H25 (Fab, V domains shown)
VH: EVQLVESGGGLVQPGGSLRLSCAASGFNIYSSSMHWVRQAPGKGLEWVASIYSYYGYTYYADSVKGRFTISADTSKNTAYLQMNSLRAEDTAVYYCARCKLYTSYMIPVGSDSVNRCMSSYGMDYWGQGTLVTVSS
VL: DIQMTQSPSSLSASVGDRVTITCRASQSVSSAVAWYQQKPGKAPKLLIYSASSLYSGVPSRFSGSRSGTDFTLTISSLQPEDFATYYCQQGGGASLITFGQGTKVEIKR
Take B1: in assay [3], the binding result was “binds”.

B2: anti-MMP9 Fab H3 (Fab, V domains shown)
VH: EVQLVESGGGLVQPGGSLRLSCAASGFNIYSSSMHWVRQAPGKGLEWVAYIYSSYGYTYYADSVKGRFTISADTSKNTAYLQMNSLRAEDTAVYYCARRFEPGLLKRNKRWISYTLCEAGYGMDYWGQGTLVTVSS
VL: DIQMTQSPSSLSASVGDRVTITCRASQSVSSAVAWYQQKPGKAPKLLIYSASSLYSGVPSRFSGSRSGTDFTLTISSLQPEDFATYYCQQASHLITFGQGTKVEIKR
Turning to B2, the binding result in assay [3] is “binds”.

B3: anti-MMP9 IgG H3 (antibody, V domains shown)
VH: B2 VH
VL: B2 VL
B3: in assay [4], the binding entry is given as “binds”.

B4: anti-MMP9 IgG L13 (antibody, V domains shown)
VH: EVQLVESGGGLVQPGGSLRLSCAASGFNISSSYIHWVRQAPGKGLEWVASISSSSGYTSYADSVKGRFTISADTSKNTAYLQMNSLRAEDTAVYYCARKYMVFGTRMGWVEHTDFAGQGYYAMDYWGQGTLVTVSS
VL: B2 VL with A91Y, S92A, H93A
With B4, in assay [4], the binding entry was “binds”.

B5: anti-MMP9 Fab L13 (Fab, V domains shown)
VH: B4 VH
VL: B2 VL with A91Y, S92A, H93A
With B5, the binding entry in assay [3] is on record as “binds”.

(Values after patent US20230074615A1.)
